These are yes or no findings as the source states them, for the method shown. In cells and extracts the contact can be indirect. A yes stands for co-enrichment or nearness to the bait. Other partners may have been found.
Biological target: Akt2 (rat (endogenous in L6 myoblasts)) (UniProt P47197)
Experiment: affinity purification with mass spectrometry; endogenous Akt2 immunoprecipitated (2 ug rabbit polyclonal anti-Akt2, protein A beads, overnight, 4°C) from 1 mg L6 myoblast lysate precleared with NIgG; cells serum-starved, with or without 100 nM insulin for 15 min; lysis buffer 50 mM HEPES pH 7.6, 150 mM NaCl, 1% Triton; 1D-SDS-PAGE, in-gel trypsin digestion, HPLC-ESI-MS/MS, label-free quantification; hits absent from all NIgG controls

Amino acid sequences for entries named in this document (tags omitted). Residues count along the entry.
UniProt P47197: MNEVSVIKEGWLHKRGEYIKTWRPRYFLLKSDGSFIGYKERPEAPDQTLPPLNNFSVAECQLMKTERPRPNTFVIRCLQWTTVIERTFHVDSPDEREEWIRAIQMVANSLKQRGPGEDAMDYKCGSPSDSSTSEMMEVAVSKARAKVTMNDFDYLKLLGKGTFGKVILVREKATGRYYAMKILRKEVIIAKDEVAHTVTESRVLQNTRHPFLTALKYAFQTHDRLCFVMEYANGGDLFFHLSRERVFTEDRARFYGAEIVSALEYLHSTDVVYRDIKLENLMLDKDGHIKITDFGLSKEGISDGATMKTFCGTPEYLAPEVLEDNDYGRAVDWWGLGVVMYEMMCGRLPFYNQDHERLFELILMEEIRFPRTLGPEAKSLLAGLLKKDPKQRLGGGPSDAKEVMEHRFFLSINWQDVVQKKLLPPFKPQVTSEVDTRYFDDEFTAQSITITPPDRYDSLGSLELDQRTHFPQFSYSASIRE
UniProt Q6AYH5: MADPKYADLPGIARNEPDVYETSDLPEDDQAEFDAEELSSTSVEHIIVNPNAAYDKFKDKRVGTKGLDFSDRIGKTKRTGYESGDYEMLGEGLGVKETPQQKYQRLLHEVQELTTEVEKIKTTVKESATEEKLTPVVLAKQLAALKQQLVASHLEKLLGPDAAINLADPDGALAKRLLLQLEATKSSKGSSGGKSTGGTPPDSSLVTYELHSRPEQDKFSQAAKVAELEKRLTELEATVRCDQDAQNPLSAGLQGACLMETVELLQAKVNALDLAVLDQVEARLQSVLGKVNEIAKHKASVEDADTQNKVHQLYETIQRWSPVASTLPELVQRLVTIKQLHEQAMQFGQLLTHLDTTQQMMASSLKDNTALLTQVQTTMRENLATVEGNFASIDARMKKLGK
UniProt Q1JU68: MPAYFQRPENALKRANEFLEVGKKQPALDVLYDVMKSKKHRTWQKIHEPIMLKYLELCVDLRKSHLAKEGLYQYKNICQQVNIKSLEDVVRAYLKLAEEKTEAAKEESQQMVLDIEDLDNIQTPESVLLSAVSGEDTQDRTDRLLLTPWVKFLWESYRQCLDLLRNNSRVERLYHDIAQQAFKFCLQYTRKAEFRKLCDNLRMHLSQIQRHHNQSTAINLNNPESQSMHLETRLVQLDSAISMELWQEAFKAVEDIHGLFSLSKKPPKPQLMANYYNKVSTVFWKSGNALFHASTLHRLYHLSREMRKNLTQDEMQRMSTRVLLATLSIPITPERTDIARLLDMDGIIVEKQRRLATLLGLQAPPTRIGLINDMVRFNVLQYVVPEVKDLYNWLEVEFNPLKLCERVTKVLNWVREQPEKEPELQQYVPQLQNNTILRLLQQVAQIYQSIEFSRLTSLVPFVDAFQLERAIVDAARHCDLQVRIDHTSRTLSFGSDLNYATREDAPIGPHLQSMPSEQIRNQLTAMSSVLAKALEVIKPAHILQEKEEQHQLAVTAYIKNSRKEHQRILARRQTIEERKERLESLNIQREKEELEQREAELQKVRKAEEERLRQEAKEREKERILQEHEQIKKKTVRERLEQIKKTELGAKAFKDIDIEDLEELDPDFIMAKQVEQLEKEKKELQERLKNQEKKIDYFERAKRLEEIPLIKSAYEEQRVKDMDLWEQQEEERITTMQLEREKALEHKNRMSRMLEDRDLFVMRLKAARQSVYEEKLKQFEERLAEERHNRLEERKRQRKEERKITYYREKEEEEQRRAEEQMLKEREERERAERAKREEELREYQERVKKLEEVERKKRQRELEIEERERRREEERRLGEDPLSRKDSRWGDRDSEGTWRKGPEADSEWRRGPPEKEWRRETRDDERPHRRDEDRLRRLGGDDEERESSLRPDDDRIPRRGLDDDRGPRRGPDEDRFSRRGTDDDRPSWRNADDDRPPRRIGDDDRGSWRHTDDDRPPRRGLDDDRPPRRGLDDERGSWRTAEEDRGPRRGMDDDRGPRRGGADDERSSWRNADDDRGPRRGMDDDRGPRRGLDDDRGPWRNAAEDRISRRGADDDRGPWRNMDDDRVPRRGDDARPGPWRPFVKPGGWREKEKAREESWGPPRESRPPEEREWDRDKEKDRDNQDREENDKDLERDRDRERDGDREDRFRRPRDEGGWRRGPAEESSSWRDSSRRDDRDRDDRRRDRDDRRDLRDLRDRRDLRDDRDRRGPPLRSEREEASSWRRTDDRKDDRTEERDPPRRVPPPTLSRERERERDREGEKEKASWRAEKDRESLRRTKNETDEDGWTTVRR
UniProt P02793: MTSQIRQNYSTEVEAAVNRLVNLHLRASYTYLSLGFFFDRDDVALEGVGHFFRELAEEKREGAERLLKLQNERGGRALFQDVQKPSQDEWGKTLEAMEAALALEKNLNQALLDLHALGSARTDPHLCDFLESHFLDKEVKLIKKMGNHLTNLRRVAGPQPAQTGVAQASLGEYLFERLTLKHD
UniProt P24368, residues 34-216: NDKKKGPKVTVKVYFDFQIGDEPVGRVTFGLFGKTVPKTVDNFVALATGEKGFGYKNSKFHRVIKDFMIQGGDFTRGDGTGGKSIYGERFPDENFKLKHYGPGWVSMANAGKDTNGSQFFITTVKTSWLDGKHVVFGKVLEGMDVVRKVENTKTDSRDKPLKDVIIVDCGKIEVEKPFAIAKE
UniProt P60901: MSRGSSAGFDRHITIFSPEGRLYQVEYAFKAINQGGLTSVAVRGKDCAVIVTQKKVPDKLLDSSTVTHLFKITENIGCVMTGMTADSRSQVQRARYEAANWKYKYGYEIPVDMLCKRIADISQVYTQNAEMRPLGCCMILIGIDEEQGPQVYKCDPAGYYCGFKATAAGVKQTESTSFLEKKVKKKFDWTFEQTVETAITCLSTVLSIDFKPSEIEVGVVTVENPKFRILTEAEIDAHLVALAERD
UniProt Q62868: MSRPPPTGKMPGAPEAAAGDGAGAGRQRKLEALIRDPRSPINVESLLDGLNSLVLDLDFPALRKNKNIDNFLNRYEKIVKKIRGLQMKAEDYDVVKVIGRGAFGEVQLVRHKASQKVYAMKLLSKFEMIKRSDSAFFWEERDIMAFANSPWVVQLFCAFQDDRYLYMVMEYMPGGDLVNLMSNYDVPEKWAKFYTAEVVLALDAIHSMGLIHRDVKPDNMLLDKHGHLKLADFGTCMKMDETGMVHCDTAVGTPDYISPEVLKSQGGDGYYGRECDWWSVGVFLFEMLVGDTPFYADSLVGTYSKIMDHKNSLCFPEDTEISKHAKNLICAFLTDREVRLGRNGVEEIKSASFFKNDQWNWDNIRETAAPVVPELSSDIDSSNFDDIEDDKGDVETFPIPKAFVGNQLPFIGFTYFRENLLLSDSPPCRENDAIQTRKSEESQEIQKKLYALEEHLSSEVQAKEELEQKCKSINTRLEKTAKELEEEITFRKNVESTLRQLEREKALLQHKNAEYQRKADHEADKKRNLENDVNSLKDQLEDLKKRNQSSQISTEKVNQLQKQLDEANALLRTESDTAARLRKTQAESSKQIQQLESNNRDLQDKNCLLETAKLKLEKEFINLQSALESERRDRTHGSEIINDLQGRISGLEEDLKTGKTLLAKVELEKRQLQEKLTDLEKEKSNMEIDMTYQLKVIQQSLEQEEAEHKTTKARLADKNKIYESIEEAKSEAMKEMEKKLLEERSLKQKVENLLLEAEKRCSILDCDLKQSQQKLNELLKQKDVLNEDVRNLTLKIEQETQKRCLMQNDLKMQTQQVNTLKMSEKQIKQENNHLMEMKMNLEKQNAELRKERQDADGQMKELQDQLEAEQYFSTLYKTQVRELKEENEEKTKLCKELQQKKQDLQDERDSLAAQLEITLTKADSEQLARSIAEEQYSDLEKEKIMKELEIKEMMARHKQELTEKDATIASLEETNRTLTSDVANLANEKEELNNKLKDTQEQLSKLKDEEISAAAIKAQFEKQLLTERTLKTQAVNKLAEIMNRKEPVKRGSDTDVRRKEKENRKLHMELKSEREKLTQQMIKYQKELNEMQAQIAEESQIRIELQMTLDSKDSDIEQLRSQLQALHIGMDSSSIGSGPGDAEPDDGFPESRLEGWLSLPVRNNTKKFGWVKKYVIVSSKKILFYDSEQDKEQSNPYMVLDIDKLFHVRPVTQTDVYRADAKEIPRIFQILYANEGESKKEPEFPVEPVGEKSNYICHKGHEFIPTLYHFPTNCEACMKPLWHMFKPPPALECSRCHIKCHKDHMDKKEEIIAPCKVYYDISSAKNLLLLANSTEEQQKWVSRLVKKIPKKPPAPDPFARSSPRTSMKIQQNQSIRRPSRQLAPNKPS
UniProt P28480: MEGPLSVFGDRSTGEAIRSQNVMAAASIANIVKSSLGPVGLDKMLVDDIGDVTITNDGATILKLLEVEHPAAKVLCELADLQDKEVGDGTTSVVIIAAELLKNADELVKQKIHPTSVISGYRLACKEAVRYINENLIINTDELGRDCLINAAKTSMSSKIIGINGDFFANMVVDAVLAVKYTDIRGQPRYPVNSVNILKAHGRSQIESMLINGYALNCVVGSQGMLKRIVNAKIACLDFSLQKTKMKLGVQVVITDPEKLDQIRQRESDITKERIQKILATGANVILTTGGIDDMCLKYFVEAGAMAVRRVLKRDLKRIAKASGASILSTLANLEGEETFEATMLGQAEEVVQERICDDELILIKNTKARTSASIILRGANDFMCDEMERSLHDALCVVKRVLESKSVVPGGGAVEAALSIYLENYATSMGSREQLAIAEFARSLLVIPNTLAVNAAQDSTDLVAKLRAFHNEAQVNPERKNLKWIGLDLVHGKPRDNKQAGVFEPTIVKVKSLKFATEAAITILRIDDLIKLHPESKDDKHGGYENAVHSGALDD
UniProt Q6P9T8: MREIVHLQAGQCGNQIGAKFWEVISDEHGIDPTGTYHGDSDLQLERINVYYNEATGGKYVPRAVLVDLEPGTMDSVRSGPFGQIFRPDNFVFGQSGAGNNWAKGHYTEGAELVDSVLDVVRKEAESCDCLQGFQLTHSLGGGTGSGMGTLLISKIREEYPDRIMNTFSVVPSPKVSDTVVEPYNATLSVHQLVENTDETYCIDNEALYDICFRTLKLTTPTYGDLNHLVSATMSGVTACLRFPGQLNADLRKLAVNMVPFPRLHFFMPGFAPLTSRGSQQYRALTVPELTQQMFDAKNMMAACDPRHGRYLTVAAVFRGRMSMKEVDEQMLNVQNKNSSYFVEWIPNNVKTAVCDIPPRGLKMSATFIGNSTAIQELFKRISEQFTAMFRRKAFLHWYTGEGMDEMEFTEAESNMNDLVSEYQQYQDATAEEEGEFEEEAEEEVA

**Q.** Which binding does the source give for “Dynactin subunit 2 (from UniProt Q6AYH5 1-402)” here?
**A.** The binding was “binds”.

**Q.** With “Eukaryotic translation initiation factor 3 subunit A (from UniProt Q1JU68 1-1354)” as the substance, how does the binding read?
**A.** Its binding is “binds”.

**Q.** Which binding does the source give for “Ferritin light chain 1 (from UniProt P02793 1-183)” here?
**A.** The binding was “binds”.

**Q.** “Fibronectin (from UniProt P04937 25-2477)” was tested. Which binding did it give?
**A.** Its binding is “binds”.

**Q.** With Myosin-4 (from UniProt Q29RW1 1-1939) as the substance, how does the binding read?
**A.** Its binding is “binds”.

**Q.** “Peptidyl-prolyl cis-trans isomerase B (from UniProt P24368 34-216)” was tested. Which binding did it give?
**A.** Its binding is “binds”.

**Q.** “Proteasome subunit alpha type-6 (from UniProt P60901 1-246)” was tested. Which binding did it give?
**A.** The binding was “binds”.

**Q.** For “Rho-associated protein kinase 2 (from UniProt Q62868 1-1388)”, which binding is on record?
**A.** Its binding is “binds”.

**Q.** How did the binding turn out when “Short/branched chain specific acyl-CoA dehydrogenase, mitochondrial (from UniProt P70584 34-432)” was run?
**A.** Its binding is “binds”.

**Q.** With “T-complex protein 1 subunit alpha (from UniProt P28480 1-556)” as the substance, how does the binding read?
**A.** Its binding is “binds”.

**Q.** Which binding does the source give for “T-complex protein 1 subunit zeta (from UniProt Q3MHS9)” here?
**A.** Its binding is “binds”.

**Q.** For “Tubulin beta-4B chain (from UniProt Q6P9T8 1-445)”, which binding is on record?
**A.** Its binding is “binds”.
